Laboratory results: publication doi:10.1101/2022.06.26.497646
Results are given in words; binding and its absence hold for the method and conditions named. A result given as binding can be weak or reduced; the word gives no strength.

Molecular target: NDUCA1 (Tetrahymena thermophila (endogenous))
Assay: cryo-EM structure

B1: COX3b (protein, UniProt Q950Y6 1-594)
chain: MLICNFLMYSNFSRIYWFDFNGTVNENLPLNYNVLKICRNEINKLEKLNENNLGTQKNPIKLNLSFEDKHYNTNNLVLDLNSYETFNSKNFISSIFDKTFESLNTVLMAPIYSFLEFKLKLSSTKINTNHYYVINGKLYITYNDSFKLFTTINDYFNDLNELSNTKLFFLYRSFNIYNIKLNSLVDFVFLKLILFIHLLYLKSTNYNRFDYRLKQTDWGFYINNNSNYIQNIFSGLKYIWRGLRFWIIGLLLGLSSIYYLMYVRLLPFNKIIFAWILVAMFLYWLLSGFVFFVKKYQYSKFTAAIQRFWKRTYIIFWVIEAGTFSVFFYLTLNASSEPVYMYDQIKIYKTHLFSWRWFLIKLLPSVSIILLGYYLQLTLKWNLFNKQNTIVLLITLLLLYILWLEFYQFYHILSFYGNINWAFDYDEYIWTLELDTRRTRLANNYIAICLFAKFWHFVFIFLFWVFFVLRINELGRIRYPLLVANVQNFIIIYIMSWAYMYPWLKFIFRKYLDVPYYWFYLNGRELGIRVFFTDLKLFFYGITNRLFDFNPSSIKFEKYPFYYWINSSQLTEFNQYRKFVIRDSIIYSLNNYII
binding: binds
